Test results taken from patent EP0897720A1, “Droloxifene for prevention of breast cancer” (Pfizer Products Inc., priority 1997, dated 1999).

Tested on: 7,12-dimethylbenz(a)anthraceneinduced mammary tumor
Test: Inhibitory effect on the mammary tumor (DMBA-induced tumor model)
Format: in vivo, female Sprague-Dawley rat (Hanover breed)
Conditions: 3 mg./kg./day by stomach tube, six times weekly over 28 days; control animals taken as 100%

CC/C(=C(\c1ccccc1)c1ccc(OCCN(C)C)cc1)c1ccccc1 [Tamoxifen, reference compound]
Relative Increase of the Average Tumor Surface: 35%
